Source: PMC4376871
Positions count from the first letter of the chain named. No constants are given. Whether binding was seen depends on the method and setting. For some of these results: Binding calls can cover weak binding; strength is not graded here. Where a sequence is shown, tags or fusion partners need not be part of it. For some of these results: In cells and extracts the contact can be indirect.

What was measured:
[1] = target: T1, Arabidopsis SHAGGY-like protein kinase AtSK22 fused to the GAL4 DNA binding domain (Arabidopsis thaliana (ecotype Sei-0 cDNA)) (UniProt Q39012); test: two-hybrid; yeast Y187; C4 or C4 mutants on AD, AtSKs on DBD; quantitative ß-galactosidase activity (Galacto-Star, chemiluminescence) relative to the C4/AtSK23 interaction
T1 sequence: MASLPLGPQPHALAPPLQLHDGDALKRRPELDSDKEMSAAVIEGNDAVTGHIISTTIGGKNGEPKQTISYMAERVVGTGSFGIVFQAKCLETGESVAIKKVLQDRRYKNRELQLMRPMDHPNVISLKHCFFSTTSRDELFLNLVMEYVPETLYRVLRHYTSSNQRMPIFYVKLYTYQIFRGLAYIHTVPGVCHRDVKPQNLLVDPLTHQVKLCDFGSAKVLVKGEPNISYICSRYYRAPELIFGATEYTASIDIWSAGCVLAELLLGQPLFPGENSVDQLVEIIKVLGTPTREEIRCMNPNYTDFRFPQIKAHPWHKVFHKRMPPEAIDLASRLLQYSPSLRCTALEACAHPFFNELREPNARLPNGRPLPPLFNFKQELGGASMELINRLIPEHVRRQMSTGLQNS

[2] = target: T2, Arabidopsis SHAGGY-like protein kinase AtSK23 fused to the GAL4 DNA binding domain (Arabidopsis thaliana (ecotype Sei-0 cDNA)) (UniProt Q39010); test: as above
T2 sequence: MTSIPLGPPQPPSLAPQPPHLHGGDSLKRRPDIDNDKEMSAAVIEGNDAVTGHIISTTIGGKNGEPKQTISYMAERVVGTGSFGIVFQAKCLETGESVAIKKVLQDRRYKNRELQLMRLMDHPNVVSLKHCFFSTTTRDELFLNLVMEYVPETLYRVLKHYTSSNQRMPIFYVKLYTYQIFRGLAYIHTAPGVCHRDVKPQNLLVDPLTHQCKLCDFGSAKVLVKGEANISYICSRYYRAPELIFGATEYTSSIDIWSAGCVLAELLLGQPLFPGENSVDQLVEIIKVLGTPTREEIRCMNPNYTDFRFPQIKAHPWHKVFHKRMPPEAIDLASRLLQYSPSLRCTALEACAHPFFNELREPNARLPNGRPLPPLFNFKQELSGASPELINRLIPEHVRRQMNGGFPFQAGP

[3] = target: T3, Arabidopsis SHAGGY-like protein kinase AtSK21 fused to the GAL4 DNA binding domain (Arabidopsis thaliana (ecotype Sei-0 cDNA)) (UniProt Q39011); test: as above
T3 sequence: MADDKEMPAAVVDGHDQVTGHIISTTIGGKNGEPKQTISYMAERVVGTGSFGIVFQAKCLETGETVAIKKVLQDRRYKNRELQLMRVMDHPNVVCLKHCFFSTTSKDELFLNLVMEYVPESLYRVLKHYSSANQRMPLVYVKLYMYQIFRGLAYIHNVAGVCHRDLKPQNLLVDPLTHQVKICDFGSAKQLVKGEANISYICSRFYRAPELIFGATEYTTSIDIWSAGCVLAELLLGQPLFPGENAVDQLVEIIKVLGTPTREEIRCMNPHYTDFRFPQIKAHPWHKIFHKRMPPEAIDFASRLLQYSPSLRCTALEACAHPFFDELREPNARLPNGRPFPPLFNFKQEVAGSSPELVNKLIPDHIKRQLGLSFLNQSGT

[4] = target: T4, AtSK22 fused at its C-terminus to the N-terminal portion of EYFP (Arabidopsis thaliana (ecotype Sei-0 cDNA)) (UniProt Q39012); test: split reporter; BiFC with cEYFP and nEYFP fusions co-agroinfiltrated into leaves of transgenic N. benthamiana CFP-H2B; confocal microscopy 48 h after infiltration
T4 sequence: T1 sequence

[5] = target: T5, AtSK21 fused at its C-terminus to the N-terminal portion of EYFP (Arabidopsis thaliana (ecotype Sei-0 cDNA)) (UniProt Q39011); test: as above
T5 sequence: T3 sequence

[6] = target: T6, AtSK23 fused at its C-terminus to the N-terminal portion of EYFP (Arabidopsis thaliana (ecotype Sei-0 cDNA)) (UniProt Q39010); test: as above
T6 sequence: T2 sequence

[7] = target: T7, Kinase-dead AtSK21K69R fused to the N-terminal portion of EYFP (Arabidopsis thaliana (ecotype Sei-0 cDNA)) (UniProt Q39011); test: as above
T7 sequence: T3 sequence with K69R

[8] = target: T8, AtSK41 fused at its C-terminus to the N-terminal portion of EYFP (Arabidopsis thaliana (ecotype Sei-0 cDNA)) (UniProt Q39019); test: as above
T8 sequence: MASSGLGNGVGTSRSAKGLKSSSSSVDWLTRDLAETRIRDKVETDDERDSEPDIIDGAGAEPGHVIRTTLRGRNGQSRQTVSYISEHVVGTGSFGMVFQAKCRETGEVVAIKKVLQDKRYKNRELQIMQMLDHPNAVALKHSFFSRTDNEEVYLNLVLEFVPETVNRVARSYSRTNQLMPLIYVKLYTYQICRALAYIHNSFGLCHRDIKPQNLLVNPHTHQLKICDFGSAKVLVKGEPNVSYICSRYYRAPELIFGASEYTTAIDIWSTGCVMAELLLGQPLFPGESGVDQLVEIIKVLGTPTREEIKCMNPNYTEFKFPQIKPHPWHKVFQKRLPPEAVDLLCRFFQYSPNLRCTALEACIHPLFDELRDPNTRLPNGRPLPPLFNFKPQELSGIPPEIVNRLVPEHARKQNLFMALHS

[9] = target: T9, Kinase-dead AtSK23K101R fused to the N-terminal portion of EYFP (Arabidopsis thaliana (ecotype Sei-0 cDNA)) (UniProt Q39010); test: as above
T9 sequence: T2 sequence with K101R

| Substance | binding [1] | binding [2] | binding [3] | binding [4] | binding [5] | binding [6] | binding [7] | binding [8] | binding [9] |
| --- | --- | --- | --- | --- | --- | --- | --- | --- | --- |
| BCTV C4 A49T reversion mutant (Thr at position 49) fused to the GAL4 activation domain | binds | binds | binds |  |  |  |  |  |  |
| BCTV C4 S49A mutant fused to the GAL4 activation domain | no binding | no binding | no binding |  |  |  |  |  |  |
| BCTV C4 A49T reversion mutant fused at its C-terminus to the C-terminal portion of EYFP |  |  |  | binds | binds | binds |  |  |  |
| BCTV C4 S49A mutant fused at its C-terminus to the C-terminal portion of EYFP |  |  |  | no binding | no binding | no binding |  |  |  |
| BCTV C4 G2A N-myristoylation site mutant fused to the GAL4 activation domain |  | binds |  |  |  |  |  |  |  |
| BCTV C4 protein fused at its C-terminus to the C-terminal portion of EYFP |  |  |  | binds | binds | binds | no binding | no binding | binds weakly |
